Measurements taken from publication PMC4882052.
Results are given in words; binding and its absence hold for the method and conditions named. In cells and extracts the contact can be indirect. Some binding calls cover weakened binding; strength is not graded here.

Amino acid sequences for entries named in this document (tags omitted). A change or cut given only in a name is not applied to a line headed by its entry. Chains listed by the source or under a name are the forms on record and can include a tag or linker.
UniProt P62962: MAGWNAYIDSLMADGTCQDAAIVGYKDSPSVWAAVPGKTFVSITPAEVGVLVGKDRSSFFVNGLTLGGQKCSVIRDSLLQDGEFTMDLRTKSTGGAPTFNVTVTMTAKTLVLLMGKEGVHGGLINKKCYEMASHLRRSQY
GST-Pfn1 S57D (phosphomimetic Mus musculus Profilin-1) (P62962, form named): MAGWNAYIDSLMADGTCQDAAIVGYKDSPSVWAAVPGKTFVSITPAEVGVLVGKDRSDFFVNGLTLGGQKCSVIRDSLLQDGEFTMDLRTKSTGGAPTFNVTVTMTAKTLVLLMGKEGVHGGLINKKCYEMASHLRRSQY
GST-Pfn1 T92D (phosphomimetic Mus musculus Profilin-1) (P62962, form named): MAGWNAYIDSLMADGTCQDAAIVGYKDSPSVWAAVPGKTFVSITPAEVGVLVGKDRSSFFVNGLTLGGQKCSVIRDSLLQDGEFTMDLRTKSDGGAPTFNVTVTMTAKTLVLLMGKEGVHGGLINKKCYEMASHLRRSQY
GST-Pfn1 S91D (phosphomimetic Mus musculus Profilin-1) (P62962, form named): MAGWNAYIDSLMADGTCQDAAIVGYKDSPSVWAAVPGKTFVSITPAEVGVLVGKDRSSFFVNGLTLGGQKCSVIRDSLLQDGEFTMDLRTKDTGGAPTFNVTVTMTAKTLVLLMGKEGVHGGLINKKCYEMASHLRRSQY
UniProt P50552: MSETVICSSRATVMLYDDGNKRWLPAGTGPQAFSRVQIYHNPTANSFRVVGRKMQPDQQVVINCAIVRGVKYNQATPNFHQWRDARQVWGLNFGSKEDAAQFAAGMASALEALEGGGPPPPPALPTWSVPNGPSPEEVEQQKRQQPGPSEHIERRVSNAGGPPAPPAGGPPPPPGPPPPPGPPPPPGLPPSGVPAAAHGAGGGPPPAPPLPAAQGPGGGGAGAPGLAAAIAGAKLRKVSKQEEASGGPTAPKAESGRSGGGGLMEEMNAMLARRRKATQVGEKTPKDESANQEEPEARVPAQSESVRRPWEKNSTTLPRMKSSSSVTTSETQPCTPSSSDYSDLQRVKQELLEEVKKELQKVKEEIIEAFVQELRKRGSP

Experiments:
Test in all cases: pull-down; GST-Pfn1 forms on glutathione-agarose beads (washed 5 times) incubated with HEK-293 lysate overnight at 4°C; lysis buffer 25mM Tris-base pH 7.4, 150mM NaCl, 1% NP-40, 1mM EDTA, 5% glycerol; immunoblot with anti-actin and anti-VASP; qualitative; only the target purified
[1] = molecular target: GST-Pfn1 S57D (phosphomimetic Mus musculus Profilin-1) (Mus musculus) (UniProt P62962)
[2] = molecular target: GST-Pfn1 T92D (phosphomimetic Mus musculus Profilin-1) (Mus musculus) (UniProt P62962)
[3] = molecular target: GST-Pfn1 (wild-type Mus musculus Profilin-1) (Mus musculus) (UniProt P62962)
[4] = molecular target: GST-Pfn1 S91D (phosphomimetic Mus musculus Profilin-1) (Mus musculus) (UniProt P62962)

Measured: binding

VASP (from UniProt P50552 1-380)
binds: all assays above
